# Primary screen of a compound library

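Whole-parasite assay of Trypanosoma brucei over 72 hours; the read-out is not stated. Concentration: 30 µM. The record gives no direction; compounds that gave an IC50 in retests scored well above the rest, so higher reads as stronger inhibition. Values scatter widely below zero; nearly all retest evidence comes from the higher of the two concentrations used. Size under these conditions: about 64,000 compounds, about 940 of them at 50% or above in at least one test.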

Results are given as percent effect. The controls that fix the scale are not given in the record; negative values are as filed. Compounds were drawn at random from those tested, without regard to their results.

With COCc1cccc(NC(C)C(=O)N(C)Cc2ccccc2)c1 (stereo not shown) the screen gave 2.314%.
With O=c1[nH]nc2nc(N3CCSCC3)ccn12 the screen gave -22.75%.
With CN(C)C(=O)c1ccc(N2CCC3(CCC(=O)N(CCO)C3)CC2)nc1 the screen gave -41.2%.
With CC(O)CN1CCC(CNCc2cccc(Cl)c2)CC1 (stereo not shown) the screen gave 36.81%.
With O=C(Nc1nncs1)N(Cc1cccc(O)c1)C1CC1 the screen gave -25.83%.
With CCSCc1ccc(C(=O)N2CCCN(CC(N)=O)CC2)cc1 the screen gave -33.62%.
With COCCn1cnnc1Cn1ccnc1-c1ccccc1C the screen gave -22.28%.
With CCC1(CO)CCCN(C(=O)c2cc(COc3cccc(F)c3)[nH]n2)C1 (stereo not shown) the screen gave 5.075%.
With [H][C@@]12C[C@H](C(=O)Nc3cnccn3)CN(c3ncc(F)cn3)[C@]1([H])CCO2 the screen gave -79.55%.
With Cc1nc(C(NC(=O)CC(F)(F)F)c2ccc(Cl)cc2)no1 (stereo not shown) the screen gave -13.37%.
With Cc1nccc(N[C@H]2CN(CC(C)(C)N3CCOCC3)C[C@@H]2C2CC2)n1 the screen gave -7.533%.
With COc1cc(NC(=O)c2cc(Cl)ccc2F)c(C(=O)N(C)C)cc1OC the screen gave 33.07%.
With Cc1noc(C)c1CN1CCC(c2nnc(Cn3cccn3)n2C)CC1 the screen gave -3.029%.
With [H][C@]12CC[C@]([H])(CN(Cc3ccc(OC)cc3)C1)N(S(=O)(=O)C1CC1)C2 the screen gave -54.12%.
With Cc1ccc(N2CCC3(CCN(Cc4ccccn4)CC3)CC2)nn1 the screen gave -17.29%.
With CC(=O)N1CCC(C(=O)N(C)[C@@H]2CCC[C@@H](N3CCCC3)[C@@H]2O)CC1 the screen gave -18.6%.
With CN(Cc1cccnc1N)Cc1cccc2ncccc12 the screen gave -14.96%.
With CCCC1CCCN(C(=O)Nc2cccnc2OC)CC1 (stereo not shown) the screen gave -0.9587%.
With CCCc1nnc(N2CC[C@@](O)(C3CCOCC3)[C@H](C)C2)s1 the screen gave -27.57%.
With O=C(CSC(F)(F)F)N1CCC2(CCCN(C3CCOCC3)C2=O)C1 (stereo not shown) the screen gave -55.22%.
With O=C(NC1CC1)N1CCC2(CC1)C(=O)NCCN2Cc1ccccc1.O=C(O)C(F)(F)F the screen gave -22.45%.
With Cn1ccnc1CN1CCC2(COCCN(S(=O)(=O)C3CC3)C2)C1 (stereo not shown) the screen gave 11.66%.
With O=c1n(CCNCc2ccc(-c3ccccc3)cc2)nc2ccccn12 the screen gave 14.11%.
With Cc1ccc2cnn(CCC(=O)Nc3nc(C)c(C)s3)c2c1 the screen gave -14.97%.
With Cc1cnn(C2CN(CCOc3ccc(C#N)cc3)C2)c1 the screen gave -91.58%.
With CNc1nc2c(c(C(=O)N3CCCC3)n1)CN(C(=O)CCSC)CC2 the screen gave -2.872%.
With COc1ccc(Cl)cc1NCC(=O)N(Cc1ccncc1)C1CC1 the screen gave -50.26%.
With CC1CCN(CCNC(=O)C2CCN(S(N)(=O)=O)CC2)CC1 the screen gave 30.82%.
With O=C(Nc1cc(-c2ccccc2)on1)N1CCN(CCO)CC1 the screen gave -3.241%.
With CSCC(C)(O)CNC(=O)Nc1ccc(C)cc1Br (stereo not shown) the screen gave -52.9%.
With CC(C)Oc1ccc2c(NC(=O)[C@H](C)O)nn(CC(F)(F)F)c2c1 the screen gave 1.993%.
With CC(C)CN1CCN(C(=O)c2ccncc2F)Cc2cccnc21.O=C(O)C(F)(F)F.O=C(O)C(F)(F)F the screen gave -15.43%.
With COc1ncccc1NC(=O)NCC(O)c1ccc(F)cc1F (stereo not shown) the screen gave -6.256%.
With CC(NCc1ccccn1)c1cc2c(cc1Br)OCCO2 (stereo not shown) the screen gave -5.767%.
With CCCn1c(C)c(CC(=O)N[C@H](C)C(=O)OC)c2c1CC(C)(C)CC2=O the screen gave 85.29%.
With NC(=O)C(NC1CCN(CC2CCCCC2)CC1)c1ccc(F)cc1 (stereo not shown) the screen gave -28.22%.
With c1cc(CN2CCCC(c3nnc(-c4cnccn4)o3)C2)ccn1 (stereo not shown) the screen gave 12.4%.
With OC(COCc1ccccc1)CN1CC(n2cccn2)C1 (stereo not shown) the screen gave 19.39%.
With Cc1nc(C)c(C(=O)N2CCC(Nc3cccnc3)CC2)s1 the screen gave -16.09%.
With [H][C@@]12CCCO[C@]1([H])[C@H](NC(=O)C1CC1)CN2Cc1ccsc1 the screen gave 24.6%.

Some entries from above, unchanged:

| Compound | percent effect |
|---|---|
| `CCCc1nnc(N2CC[C@@](O)(C3CCOCC3)[C@H](C)C2)s1` | -27.57 |
| `Cc1nccc(N[C@H]2CN(CC(C)(C)N3CCOCC3)C[C@@H]2C2CC2)n1` | -7.533 |
| `COCCn1cnnc1Cn1ccnc1-c1ccccc1C` | -22.28 |

Measurements from “University of Dundee, Small-Polar-MMV Screening Library” (2021), ChEMBL document CHEMBL3988442.